ChEMBL document CHEMBL5126505, “Adenosine receptor antagonists: Recent advances and therapeutic perspective” (Eur J Med Chem, 2022)

Assay: physchem
Settings: octanol/water, pH 7.4

Question: Which logD at 1 h does the source give for O=C(CN1CCCCC1)Nc1ccc2oc(-c3ccco3)nc2c1 here?
Answer: Its logD at 1 h is 2.33.
